Test results published in the supplement of paper PMC12819154, “High-throughput peptide-centric local stability assay extends protein–ligand identification to membrane proteins, tissues and bacteria” (Nature Structural & Molecular Biology, 2025).
The other results are listed elsewhere or left out. Most values lie at the level of the controls, where differences are scatter.

Sequences of proteins named here, by UniProt entry; tags and fusion partners are left off. A change or cut given only in a name is not applied to a line headed by its entry.
UniProt Q9CYI4: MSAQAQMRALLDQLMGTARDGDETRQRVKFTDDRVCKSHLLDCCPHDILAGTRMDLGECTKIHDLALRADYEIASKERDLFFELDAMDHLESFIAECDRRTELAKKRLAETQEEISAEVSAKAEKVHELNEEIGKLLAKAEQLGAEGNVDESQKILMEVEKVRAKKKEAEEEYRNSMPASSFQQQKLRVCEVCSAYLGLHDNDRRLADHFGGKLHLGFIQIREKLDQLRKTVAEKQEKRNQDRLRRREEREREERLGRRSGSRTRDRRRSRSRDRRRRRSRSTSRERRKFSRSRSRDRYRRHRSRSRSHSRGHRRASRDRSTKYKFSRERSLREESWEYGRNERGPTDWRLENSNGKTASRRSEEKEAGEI
UniProt Q9D0B0, whole entry: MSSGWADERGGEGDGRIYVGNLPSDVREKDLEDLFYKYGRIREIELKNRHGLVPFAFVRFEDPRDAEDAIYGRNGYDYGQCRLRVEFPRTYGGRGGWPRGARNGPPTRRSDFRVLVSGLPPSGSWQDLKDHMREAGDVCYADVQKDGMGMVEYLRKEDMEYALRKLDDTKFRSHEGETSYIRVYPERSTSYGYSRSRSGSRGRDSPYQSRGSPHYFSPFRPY
UniProt Q9CX98: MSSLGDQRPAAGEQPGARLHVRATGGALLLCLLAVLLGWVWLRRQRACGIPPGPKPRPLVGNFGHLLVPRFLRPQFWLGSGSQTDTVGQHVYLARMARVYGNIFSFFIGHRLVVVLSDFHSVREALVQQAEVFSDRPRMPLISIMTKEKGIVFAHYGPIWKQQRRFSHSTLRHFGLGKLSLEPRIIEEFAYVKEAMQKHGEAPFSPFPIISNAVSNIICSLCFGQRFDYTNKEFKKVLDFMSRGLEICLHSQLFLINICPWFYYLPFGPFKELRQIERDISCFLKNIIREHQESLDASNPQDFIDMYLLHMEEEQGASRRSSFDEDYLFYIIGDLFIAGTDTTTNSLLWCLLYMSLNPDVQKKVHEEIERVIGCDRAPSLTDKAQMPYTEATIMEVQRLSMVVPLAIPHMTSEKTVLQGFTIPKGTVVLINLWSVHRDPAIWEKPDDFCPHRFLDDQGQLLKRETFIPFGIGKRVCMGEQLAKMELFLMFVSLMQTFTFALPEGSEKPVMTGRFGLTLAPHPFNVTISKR
UniProt Q9CZT4: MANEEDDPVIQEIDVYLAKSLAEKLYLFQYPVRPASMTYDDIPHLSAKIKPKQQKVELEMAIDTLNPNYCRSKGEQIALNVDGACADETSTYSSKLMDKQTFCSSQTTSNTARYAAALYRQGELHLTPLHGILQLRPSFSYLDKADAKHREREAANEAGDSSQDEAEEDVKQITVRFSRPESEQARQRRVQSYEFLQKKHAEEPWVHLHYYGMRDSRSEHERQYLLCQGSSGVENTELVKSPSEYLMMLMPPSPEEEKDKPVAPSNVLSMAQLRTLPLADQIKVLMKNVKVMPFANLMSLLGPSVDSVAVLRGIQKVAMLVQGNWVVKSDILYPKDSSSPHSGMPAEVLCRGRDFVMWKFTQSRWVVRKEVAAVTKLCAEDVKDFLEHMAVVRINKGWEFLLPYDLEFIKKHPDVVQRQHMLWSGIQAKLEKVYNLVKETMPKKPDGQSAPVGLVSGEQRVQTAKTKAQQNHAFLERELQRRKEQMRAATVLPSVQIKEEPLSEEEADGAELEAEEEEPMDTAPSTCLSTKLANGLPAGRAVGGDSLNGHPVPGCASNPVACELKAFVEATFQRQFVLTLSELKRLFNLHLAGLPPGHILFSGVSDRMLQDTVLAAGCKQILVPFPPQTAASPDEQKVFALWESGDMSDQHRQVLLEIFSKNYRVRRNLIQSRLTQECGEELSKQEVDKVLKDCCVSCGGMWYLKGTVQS
UniProt Q9CYN2: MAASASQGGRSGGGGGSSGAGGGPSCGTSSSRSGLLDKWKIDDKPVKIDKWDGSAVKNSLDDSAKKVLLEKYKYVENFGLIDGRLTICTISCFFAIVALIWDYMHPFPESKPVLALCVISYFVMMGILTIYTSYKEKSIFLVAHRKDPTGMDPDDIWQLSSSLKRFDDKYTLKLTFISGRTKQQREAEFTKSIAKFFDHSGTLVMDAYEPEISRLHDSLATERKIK
UniProt Q9CYV5: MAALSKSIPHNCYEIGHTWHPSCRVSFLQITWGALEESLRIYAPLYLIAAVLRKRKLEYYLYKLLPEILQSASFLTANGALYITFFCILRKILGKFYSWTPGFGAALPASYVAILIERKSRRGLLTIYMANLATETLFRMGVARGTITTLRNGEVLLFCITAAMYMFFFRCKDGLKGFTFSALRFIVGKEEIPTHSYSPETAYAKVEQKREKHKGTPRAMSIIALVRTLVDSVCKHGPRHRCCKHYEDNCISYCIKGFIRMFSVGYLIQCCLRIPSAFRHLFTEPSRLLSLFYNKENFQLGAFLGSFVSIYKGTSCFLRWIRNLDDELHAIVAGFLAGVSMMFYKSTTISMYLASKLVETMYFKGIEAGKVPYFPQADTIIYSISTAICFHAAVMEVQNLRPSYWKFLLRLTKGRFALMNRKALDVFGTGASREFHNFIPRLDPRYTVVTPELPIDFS
UniProt Q9CZJ2: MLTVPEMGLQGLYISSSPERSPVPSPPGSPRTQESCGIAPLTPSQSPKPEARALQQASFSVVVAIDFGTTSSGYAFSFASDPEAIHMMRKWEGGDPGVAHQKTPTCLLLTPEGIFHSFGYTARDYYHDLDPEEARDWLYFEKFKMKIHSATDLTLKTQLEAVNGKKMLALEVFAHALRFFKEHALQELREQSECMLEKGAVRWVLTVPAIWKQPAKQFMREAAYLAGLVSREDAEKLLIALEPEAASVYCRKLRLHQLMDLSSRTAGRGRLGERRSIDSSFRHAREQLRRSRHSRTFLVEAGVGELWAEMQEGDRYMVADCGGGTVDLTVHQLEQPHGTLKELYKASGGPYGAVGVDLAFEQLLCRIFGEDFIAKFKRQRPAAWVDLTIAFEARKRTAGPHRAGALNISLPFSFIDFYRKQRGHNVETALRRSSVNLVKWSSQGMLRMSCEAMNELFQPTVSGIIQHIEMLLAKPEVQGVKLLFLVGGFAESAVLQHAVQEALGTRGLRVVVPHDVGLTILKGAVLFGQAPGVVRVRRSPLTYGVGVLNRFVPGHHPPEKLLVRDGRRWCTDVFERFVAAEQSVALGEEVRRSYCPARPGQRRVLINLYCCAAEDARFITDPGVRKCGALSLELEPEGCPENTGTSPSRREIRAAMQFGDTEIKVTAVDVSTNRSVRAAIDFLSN
UniProt Q9CWR2: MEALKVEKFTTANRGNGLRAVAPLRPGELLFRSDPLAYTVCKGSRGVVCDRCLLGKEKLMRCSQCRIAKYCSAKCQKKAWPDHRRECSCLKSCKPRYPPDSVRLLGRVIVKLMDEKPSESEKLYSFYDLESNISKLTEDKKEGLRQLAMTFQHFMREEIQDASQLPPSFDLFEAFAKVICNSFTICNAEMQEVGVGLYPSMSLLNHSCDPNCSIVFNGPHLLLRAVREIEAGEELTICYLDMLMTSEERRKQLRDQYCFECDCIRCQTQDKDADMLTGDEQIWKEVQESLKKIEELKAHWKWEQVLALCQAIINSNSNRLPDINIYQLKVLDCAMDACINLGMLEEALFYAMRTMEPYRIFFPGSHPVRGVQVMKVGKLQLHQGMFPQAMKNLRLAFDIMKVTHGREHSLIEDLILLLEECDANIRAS
UniProt Q9CZ92: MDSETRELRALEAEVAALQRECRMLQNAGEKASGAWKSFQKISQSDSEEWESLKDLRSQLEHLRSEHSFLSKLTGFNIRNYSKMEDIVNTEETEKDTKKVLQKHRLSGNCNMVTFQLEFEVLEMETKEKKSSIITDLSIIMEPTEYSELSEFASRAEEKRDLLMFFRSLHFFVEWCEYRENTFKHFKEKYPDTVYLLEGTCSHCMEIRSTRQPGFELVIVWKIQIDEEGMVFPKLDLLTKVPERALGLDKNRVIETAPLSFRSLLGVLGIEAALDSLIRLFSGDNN
UniProt Q9CW03: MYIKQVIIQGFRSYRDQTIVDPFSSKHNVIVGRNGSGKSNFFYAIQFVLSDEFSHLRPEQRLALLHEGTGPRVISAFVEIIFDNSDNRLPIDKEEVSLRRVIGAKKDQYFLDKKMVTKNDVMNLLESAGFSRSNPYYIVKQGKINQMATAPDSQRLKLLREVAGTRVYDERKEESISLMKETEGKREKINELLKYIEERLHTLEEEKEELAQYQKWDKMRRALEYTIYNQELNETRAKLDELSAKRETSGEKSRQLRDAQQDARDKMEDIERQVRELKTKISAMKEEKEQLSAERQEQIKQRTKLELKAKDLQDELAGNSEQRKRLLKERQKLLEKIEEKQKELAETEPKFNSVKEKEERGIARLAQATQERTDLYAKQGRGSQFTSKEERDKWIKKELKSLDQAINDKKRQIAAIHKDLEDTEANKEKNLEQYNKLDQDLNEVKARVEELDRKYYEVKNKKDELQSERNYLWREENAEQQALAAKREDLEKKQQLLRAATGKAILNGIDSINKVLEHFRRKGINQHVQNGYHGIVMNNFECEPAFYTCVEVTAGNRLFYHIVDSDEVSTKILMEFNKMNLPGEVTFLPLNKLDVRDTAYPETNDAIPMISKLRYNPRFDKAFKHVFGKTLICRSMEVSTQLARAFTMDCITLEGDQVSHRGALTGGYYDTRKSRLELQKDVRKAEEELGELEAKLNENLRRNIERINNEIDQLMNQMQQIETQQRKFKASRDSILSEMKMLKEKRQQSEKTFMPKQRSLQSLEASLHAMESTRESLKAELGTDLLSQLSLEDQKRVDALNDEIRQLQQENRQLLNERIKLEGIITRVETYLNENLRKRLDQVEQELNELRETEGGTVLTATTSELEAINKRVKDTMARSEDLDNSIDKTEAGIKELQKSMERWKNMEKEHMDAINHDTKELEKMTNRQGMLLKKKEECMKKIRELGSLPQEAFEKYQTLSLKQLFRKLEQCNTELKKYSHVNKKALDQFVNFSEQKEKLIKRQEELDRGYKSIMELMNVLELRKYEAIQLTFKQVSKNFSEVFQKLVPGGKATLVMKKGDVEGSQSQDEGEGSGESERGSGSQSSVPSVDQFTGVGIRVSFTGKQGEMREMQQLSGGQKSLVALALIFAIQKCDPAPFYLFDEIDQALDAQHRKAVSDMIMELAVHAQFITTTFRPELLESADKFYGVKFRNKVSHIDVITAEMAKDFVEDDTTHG
UniProt Q9D0B6: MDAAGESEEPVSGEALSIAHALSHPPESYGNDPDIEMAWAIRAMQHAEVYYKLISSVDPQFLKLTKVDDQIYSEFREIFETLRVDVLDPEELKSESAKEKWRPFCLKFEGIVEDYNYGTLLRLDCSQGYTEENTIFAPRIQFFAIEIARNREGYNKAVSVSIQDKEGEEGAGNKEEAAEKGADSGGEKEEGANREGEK
UniProt Q9D0R4: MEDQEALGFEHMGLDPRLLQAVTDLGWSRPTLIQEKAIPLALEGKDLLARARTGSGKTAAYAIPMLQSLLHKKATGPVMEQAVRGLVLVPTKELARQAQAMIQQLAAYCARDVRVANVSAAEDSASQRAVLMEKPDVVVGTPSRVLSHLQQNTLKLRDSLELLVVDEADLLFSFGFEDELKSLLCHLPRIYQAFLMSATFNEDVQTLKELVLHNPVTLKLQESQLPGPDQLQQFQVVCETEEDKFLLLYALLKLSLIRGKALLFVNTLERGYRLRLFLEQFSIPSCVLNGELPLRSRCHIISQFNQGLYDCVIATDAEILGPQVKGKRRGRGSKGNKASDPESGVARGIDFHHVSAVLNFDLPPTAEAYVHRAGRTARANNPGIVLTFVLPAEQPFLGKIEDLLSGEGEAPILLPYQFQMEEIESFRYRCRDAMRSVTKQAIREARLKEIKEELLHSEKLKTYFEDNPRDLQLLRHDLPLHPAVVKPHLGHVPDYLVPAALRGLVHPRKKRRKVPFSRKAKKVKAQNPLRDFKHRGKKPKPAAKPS
UniProt Q9CZN7: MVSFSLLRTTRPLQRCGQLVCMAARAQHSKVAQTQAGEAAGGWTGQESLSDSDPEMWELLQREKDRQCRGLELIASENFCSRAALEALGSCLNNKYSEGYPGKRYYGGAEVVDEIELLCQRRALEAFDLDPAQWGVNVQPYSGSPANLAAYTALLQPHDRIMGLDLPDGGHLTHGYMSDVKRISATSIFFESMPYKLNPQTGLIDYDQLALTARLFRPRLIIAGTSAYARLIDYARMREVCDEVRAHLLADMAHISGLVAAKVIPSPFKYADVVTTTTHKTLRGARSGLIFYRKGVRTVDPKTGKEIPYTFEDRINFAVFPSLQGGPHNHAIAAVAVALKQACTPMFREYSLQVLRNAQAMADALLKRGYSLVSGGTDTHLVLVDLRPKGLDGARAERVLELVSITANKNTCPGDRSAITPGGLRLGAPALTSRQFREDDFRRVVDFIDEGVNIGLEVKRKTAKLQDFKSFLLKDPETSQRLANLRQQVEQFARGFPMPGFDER
UniProt Q9CR80: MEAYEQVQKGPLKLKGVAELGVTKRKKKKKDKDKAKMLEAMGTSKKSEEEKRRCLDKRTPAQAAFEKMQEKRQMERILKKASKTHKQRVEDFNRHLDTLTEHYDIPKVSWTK
UniProt Q9CX25: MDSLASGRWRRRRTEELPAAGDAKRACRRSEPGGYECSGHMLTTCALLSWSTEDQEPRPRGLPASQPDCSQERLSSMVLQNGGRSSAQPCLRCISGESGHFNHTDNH

Compound: CN[C@@H]1C[C@H]2O[C@@](C)([C@@H]1OC)n1c3ccccc3c3c4c(c5c6ccccc6n2c5c31)C(=O)NC4 [staurosporine]
Test: log2 fold change of tryptic peptide abundance, ligand vs vehicle (limited proteolysis) (log2 ratio); higher = more trypsin-susceptible (destabilized)
Conditions: ligand concentration: 20 uM; sample: mouse liver crude lysate; replicate design: treated separately

Target	log2 fold change
UniProt Q9CY64 (peptide sequence: FGVVVVGVGR, peptide start residue: 9)	0.194
UniProt Q9CYI4 (peptide sequence: ILMEVEK, peptide start residue: 155)	0.177
UniProt Q9D0B0 (peptide sequence: DGMGMVEYLR, peptide start residue: 146)	0.289
UniProt Q9CX98 (peptide sequence: PLVGNFGHLLVPR, peptide start residue: 58)	1.07
UniProt Q9D0B1 (peptide sequence: RAPHFCPVCLR, peptide start residue: 106)	-0.25
UniProt Q9CZB0 (peptide sequence: WSLPMALSVCHR, peptide start residue: 61)	-0.632
UniProt Q9CZT4 (peptide sequence: FSRPESEQAR, peptide start residue: 177)	-0.709
UniProt Q9CY66 (peptide sequence: FLPRPPGEK, peptide start residue: 168)	0.141
UniProt Q9CWJ9 (peptide sequence: NKDLPESALR, peptide start residue: 407)	0.383
UniProt Q9CUB6 (peptide sequence: KRDEELAK, peptide start residue: 430)	0.0597
UniProt Q9CX66 (peptide sequence: KTSTLQTVR, peptide start residue: 54)	-0.32
UniProt Q9CYN2 (peptide sequence: SIFLVAHR, peptide start residue: 138)	0.449
UniProt Q9CWN7 (peptide sequence: QSELPTQSK, peptide start residue: 224)	-0.0675
UniProt Q9CYV5 (peptide sequence: EFHNFIPR, peptide start residue: 434)	-0.3
UniProt Q9CXT8 (peptide sequence: IDAVDAETVR, peptide start residue: 442)	-0.307
UniProt Q9CZJ2 (peptide sequence: LHQLMDLSSR, peptide start residue: 255)	0.398
UniProt Q9CU62 (peptide sequence: DCIQYIKEQR, peptide start residue: 555)	-0.561
UniProt Q9D0A3 (peptide sequence: KVNTGFLMSSYK, peptide start residue: 90)	0.15

Single entries from above:
Value of UniProt Q9CY64 (peptide sequence: FGVVVVGVGR, peptide start residue: 9) under log2 fold change: 0.194
Value of UniProt Q9D0B1 (peptide sequence: RAPHFCPVCLR, peptide start residue: 106) under log2 fold change: -0.25

More results:

Target	log2 fold change
UniProt Q9D0R2 (peptide sequence: FNLTYVSHDGDDK, peptide start residue: 570)	-0.445
UniProt Q9CWR2 (peptide sequence: AVAPLRPGELLFR, peptide start residue: 20)	-0.231
UniProt Q9CXF7 (peptide sequence: TLSEFSAVFR, peptide start residue: 183)	-0.385
UniProt Q9CZ92 (peptide sequence: SQLEHLR, peptide start residue: 58)	-0.118
UniProt Q9CZU6 (peptide sequence: GYSIPECQK, peptide start residue: 95)	0.209
UniProt Q9CW03 (peptide sequence: IKLEGIITR, peptide start residue: 819)	0.34
UniProt Q9CXE2 (peptide sequence: WVPVTEPK, peptide start residue: 48)	0.0848
UniProt Q9CZN8 (peptide sequence: NPAAHCGIVGFKPSYGLVSR, peptide start residue: 195)	-0.384
UniProt Q9D0B6 (peptide sequence: LISSVDPQFLK, peptide start residue: 53)	-0.354
UniProt Q9D0R4 (peptide sequence: TAAYAIPMLQSLLHKK, peptide start residue: 58)	0.174
UniProt Q9CYA6 (peptide sequence: SLPPFIYR, peptide start residue: 308)	0.18
UniProt Q9D0I6 (peptide sequence: EAMESWIHKK, peptide start residue: 430)	0.207
UniProt Q9CZN7 (peptide sequence: LGAPALTSR, peptide start residue: 426)	-0.139
UniProt Q9D0U6 (peptide sequence: IESYSCK, peptide start residue: 29)	-0.0804
UniProt Q9CR80 (peptide sequence: HLDTLTEHYDIPK, peptide start residue: 95)	0.122
UniProt Q9CX25 (peptide sequence: RTEELPAAGDAKR, peptide start residue: 13)	0.315
UniProt Q9CXV9 (peptide sequence: CKIPSYCR, peptide start residue: 25)	-0.155
